Results reported in patent US8772266B2, “Fungicide pyrazole carboxamides derivates” (Bayer Cropscience AG, priority 2009, dated 2014).
Some results were stated once for a whole list of compounds, not compound by compound.

Experiments:
[1] = system: Blumeria graminis f.sp. tritici; assay: In vivo curative test on Blumeria graminis (wheat); settings: 250 ppm of active ingredient, evaluated 7 days after inoculation
Fusarium proliferatum = assay: Inhibition of Fumonisin FB1 produced by Fusarium proliferatum; format: cell-based; settings: 50 μM of active ingredient; 5 days; HPLC-MS/MS
Venturia inaequalis = assay: In vivo preventive test on Venturia inaequalis (apple scab); settings: 10 ppm of active ingredient, evaluated 10 days after inoculation
Aspergillus parasiticus = format: cell-based; settings: 50 μM of active ingredient; 7 days; fluorescence
Fusarium graminearum = format: cell-based; settings: 7 days; 50 µM
Botrytis cinerea = assay: In vivo preventive test on Botrytis cinerea (beans); settings: 100 ppm of active ingredient, evaluated 2 days after inoculation
Leptosphaeria nodorum = assay: In vivo preventive test on Leptosphaeria nodorum (wheat); settings: 500 ppm of active ingredient, evaluated 7-9 days after inoculation
Pyrenophora teres = assay: In vivo preventive test on Pyrenophora teres (barley); settings: 500 ppm of active ingredient, evaluated 7-9 days after inoculation
Puccinia recondita = assay: In vivo preventive test on Puccinia recondita (wheat); settings: 500 ppm of active ingredient, evaluated 7-9 days after inoculation
Sphaerotheca fuliginea = assay: In vivo preventive test on Sphaerotheca fuliginea (cucumber), Example L; settings: 500 ppm of active ingredient, evaluated 7 days after inoculation
Alternaria solani = assay: In vivo preventive test on Alternaria solani (tomato); settings: 500 ppm of active ingredient, evaluated 7 days after inoculation
Puccinia triticina = assay: In vivo curative test on Puccinia triticina (wheat); settings: 500 ppm of active ingredient, evaluated 8 days after inoculation
Phakopsora pachyrhizi = assay: In vivo preventive test on Phakopsora pachyrhizi (soybean rust); settings: 50 ppm of active ingredient, evaluated 11 days after inoculation
Experimental: Solvent: 28.5 parts by weight of acetone
Emulsifier: 1.5 parts by weight of polyoxyethylene alkyl phenyl ether
One day after spraying, the plants are inoculated with an aqueous spore suspension of the causal agent of soybean rust (Phakopsora pachyrhizi).
The test is evaluated 11 days after the inoculation.

| SMILES | disease control [1] | inhibition of Fumonisin FB1 production (Fusarium proliferatum) [%] | disease control (Venturia inaequalis) | inhibition of aflatoxines production (Aspergillus parasiticus) [%] | inhibition of DON/Acetyl-DON production (Fusarium graminearum) [%] | disease control (Botrytis cinerea) | disease control (Leptosphaeria nodorum) | disease control (Pyrenophora teres) | disease control (Puccinia recondita) | disease control (Sphaerotheca fuliginea) | disease control (Alternaria solani) | disease control (Puccinia triticina) | disease control (Phakopsora pachyrhizi) |
| --- | --- | --- | --- | --- | --- | --- | --- | --- | --- | --- | --- | --- | --- |
| CC1CCc2cccc(C(C)N(C(=O)c3c(C(F)F)nn(C)c3F)C3CC3)c2C1 (mixture of isomers) [Example 50] | at least 80% | > 80 | at least 70% | > 80 | > 80 | at least 90% |  |  |  |  |  |  |  |
| CCCCCc1ccccc1C(C)N(C(=O)c1c(C(F)F)nn(C)c1F)C1CC1 (racemic) [Example 26] |  | > 80 | at least 70% | > 80 | > 80 | at least 90% | at least 70% | at least 70% | at least 70% | at least 70% |  |  |  |
| CC(c1cccc2c1CCC(C)(C)C2)N(C(=O)c1c(C(F)F)nn(C)c1F)C1CC1 (racemic) [Example 44] |  | > 80 | at least 70% |  | > 80 | at least 90% | at least 70% | at least 70% | at least 70% | at least 70% | at least 70% |  |  |
| Cc1cc(C)cc(C(C)N(C(=O)c2c(C(F)F)nn(C)c2F)C2CC2)c1 (racemic) [Example 46] | at least 80% | > 80 | at least 70% | > 80 | > 80 | at least 90% | at least 70% | at least 70% | at least 70% | at least 70% |  |  |  |
| CC(c1cccc2c1CCCC2)N(C(=O)c1c(C(F)F)nn(C)c1F)C1CC1 (racemic) [Example 51] | at least 80% | > 80 | at least 70% | > 80 | > 80 | at least 90% |  |  |  |  |  |  |  |
| Cn1nc(C(F)F)c(C(=O)N(Cc2c(C(F)(F)F)ccc(Cl)c2Cl)C2CC2)c1F [Example 15] | at least 80% | > 80 | at least 70% | > 80 |  | at least 90% | at least 70% | at least 70% | at least 70% | at least 70% | at least 70% | at least 95% |  |
| Cn1nc(C(F)F)c(C(=O)N(Cc2cc(F)c(Br)cc2Br)C2CC2)c1F [Example 16] |  | > 80 | at least 70% | > 80 |  | at least 90% | at least 70% | at least 70% | at least 70% | at least 70% | at least 70% |  | at least 90% |
| Cn1nc(C(F)F)c(C(=O)N(Cc2cc(Cl)cc(Cl)c2Cl)C2CC2)c1F [Example 18] |  | > 80 | at least 70% | > 80 | > 80 | at least 90% | at least 70% | at least 70% | at least 70% | at least 70% | at least 70% |  |  |
| Cn1nc(C(F)F)c(C(=O)N(Cc2cc(Cl)c(Cl)cc2C(F)(F)F)C2CC2)c1F [Example 25] |  | > 80 |  | > 80 |  | at least 90% | at least 70% | at least 70% | at least 70% | at least 70% | at least 70% | at least 95% | at least 90% |
| CC(C)Cc1ccccc1CN(C(=O)c1c(C(F)F)nn(C)c1F)C1CC1 [Example 33] | at least 80% | > 80 | at least 70% | > 80 |  | at least 90% | at least 70% | at least 70% | at least 70% | at least 70% | at least 70% | at least 95% |  |
| Cn1nc(C(F)F)c(C(=O)N(Cc2ccccc2C2CC2)C2CC2)c1F [Example 47] | at least 80% | > 80 | at least 70% | > 80 | > 80 | at least 90% |  |  |  |  |  |  |  |
| CCc1ccccc1CN(C(=O)c1c(C(F)F)nn(C)c1F)C1CC1 [Example 48] | at least 80% | > 80 | at least 70% | > 80 | > 80 | at least 90% |  |  |  |  |  | at least 95% |  |
| Cn1nc(C(F)F)c(C(=O)N(Cc2c([Si](C)(C)C)ccc(F)c2F)C2CC2)c1F [Example 49] |  | > 80 | at least 70% | > 80 |  | at least 90% |  |  |  |  |  | at least 95% | at least 90% |
| CC(c1ncc(Cl)cc1Cl)N(C(=O)c1c(C(F)F)nn(C)c1Cl)C1CC1 (stereo not drawn) [Example 58] |  | > 80 | at least 70% | > 80 | > 80 |  | at least 70% | at least 70% | at least 70% | at least 70% | at least 70% |  |  |
| Cn1nc(C(F)F)c(C(=O)N(Cc2ccccc2C(F)(F)F)C2CC2)c1F [Example 61] | at least 80% | > 80 | at least 70% | > 80 |  | at least 90% | at least 70% | at least 70% | at least 70% | at least 70% | at least 70% | at least 95% |  |
| CC(c1ncc(Cl)cc1Cl)N(C(=O)c1c(C(F)F)nn(C)c1F)C1CC1 (stereo not drawn) [Example 62] |  | > 80 | at least 70% | > 80 | > 80 |  | at least 70% | at least 70% | at least 70% | at least 70% | at least 70% |  |  |
| Cn1nc(C(F)F)c(C(=O)N(Cc2ccc(Cl)cc2Cl)C2CC2)c1F [Example 63] |  | > 80 | at least 70% | > 80 | > 80 | at least 90% | at least 70% | at least 70% | at least 70% | at least 70% |  | at least 95% |  |
| CC(c1ccc(Oc2ccccc2)cc1)N(C(=O)c1c(C(F)F)nn(C)c1F)C1CC1 (stereo not drawn) [Example 65] |  | > 80 | at least 70% | > 80 | > 80 | at least 90% | at least 70% | at least 70% | at least 70% | at least 70% | at least 70% |  |  |
| CC(c1ccccc1C(F)(F)F)N(C(=O)c1c(C(F)F)nn(C)c1F)C1CC1 (stereo not drawn) [Example 66] |  | > 80 | at least 70% | > 80 | > 80 |  | at least 70% | at least 70% |  | at least 70% | at least 70% |  |  |
